Measured values published in PubChem BioAssay AID330 (DTP/NCI, 2004).
The list does not hold the whole screen: it is rich in T/C values a quarter to a half above the control, in often repeated tests (any T/C) and in doses without a T/C. Other doses and runs of a compound stand elsewhere. T/C gives the treated animals as a percentage of the vehicle group. Some doses have a count of surviving animals in place of a T/C: the source files T/C as zero there, which appears to mark a toxic dose or a test without result, not a measured value. Some doses without a T/C left all or most animals alive at the check, yet need not have been tolerated: survival well below the control is almost never listed, so the zero probably covers shortened survival too. Counts of survivors are from the toxicity check (mostly the fifth day) where no day follows; animals may have died later. Schedule codes are those of the source, taken here to give the interval after Q, in days (D) or hours (H), and the number of doses after X. Some entries hold several experiments; their values stand side by side, smallest first. Where survival is the endpoint, the PubChem record calls one and a half times the control and up active, and a quarter to a half above the control has no call in these data; cut-offs in other NCI protocols can differ. Some T/C values carry the count of animals alive at the toxicity check (mostly the fifth day); without a count, all were alive then. Counts like (3×) stand for listed records that agree.

Test system: P388 leukemia ip, CD2F1 mice, survival T/C
Test: NCI In Vivo Anticancer Drug Screen. Data for tumor model P388 Leukemia (intraperitoneal) in CD2F1 (CDF1) mice
Details: T/C endpoint: median survival time, higher T/C = longer survival
[1] = dose: 50.0 mg/kg/injection, schedule: Q01DX005 (ip), vehicle: Klucel (hydroxypropylcellulose) (HPC)
[2] = dose: 100.0 mg/kg/injection, schedule: Q01DX005 (ip), vehicle: Klucel (hydroxypropylcellulose) (HPC)
[3] = dose: 200.0 mg/kg/injection, schedule: Q01DX005 (ip), vehicle: Klucel (hydroxypropylcellulose) (HPC)
[4] = dose: 200.0 mg/kg/injection, schedule: Q01DX005 (ip), vehicle: saline with Tween-80
[5] = dose: 100.0 mg/kg/injection, schedule: Q01DX009 (ip), vehicle: saline with Tween-80
[6] = dose: 200.0 mg/kg/injection, schedule: Q01DX009 (ip), vehicle: saline with Tween-80
[7] = dose: 400.0 mg/kg/injection, schedule: Q01DX009 (ip), vehicle: saline with Tween-80
[8] = dose: 100.0 mg/kg/injection, schedule: Q01DX009 (ip), vehicle: Klucel (hydroxypropylcellulose) (HPC)
[9] = dose: 200.0 mg/kg/injection, schedule: Q01DX009 (ip), vehicle: Klucel (hydroxypropylcellulose) (HPC)
[10] = dose: 50.0 mg/kg/injection, schedule: Q01DX009 (ip), vehicle: water
[11] = dose: 25.0 mg/kg/injection, schedule: Q01DX009 (ip), vehicle: saline with Tween-80
[12] = dose: 100.0 mg/kg/injection, schedule: Q04DX003 (ip), vehicle: saline with Tween-80
[13] = dose: 400.0 mg/kg/injection, schedule: Q04DX003 (ip), vehicle: saline with Tween-80
[14] = dose: 200.0 mg/kg/injection, schedule: Q04DX003 (ip), vehicle: saline with Tween-80

For `COC1CC(OC2CCC3(C)C(CCC45CCC(C6=CC(=O)OC6)C(C)(CCC43)C5=O)C2)OC(C)C1O` (configuration not stated), the survivor count (dose: 25.0 mg/kg/injection, schedule: Q01DX005 (ip), vehicle: Klucel (hydroxypropylcellulose) (HPC)) was 5 of 5, the survivor count [1] was 5 of 5 and the survivor count [2] was 5 of 5. The survivor count [3] was 5 of 5.
With `CN(Cc1cccc2ccccc12)Cc1cccc2ccccc12` the survivor count [4] was 5 of 5.
In the case of `O=[N+]([O-])c1cc([N+](=O)[O-])c2ccccc2c1NS(=O)(=O)c1ccc(Br)cc1`, the T/C [5] is reported as 131 % of control and the T/C [6] is reported as 135 % of control [5 of 6 alive].
With `C=C1C(=O)OC2/C=C(\C)C(OC(C)=O)C3OC3C(C)(O)CC(OC(=O)/C(C)=C/C)C12` (configuration not stated) the survivor count (dose: 80.0 mg/kg/injection, schedule: Q01DX009 (ip), vehicle: saline with Tween-80) was 5 of 6.
`Cc1ccc(S(=O)(=O)N(Cc2ccccc2)S(=O)(=O)c2ccc(C)cc2)cc1` was tested, and the survivor count [5] was 6 of 6, the survivor count [6] was 5 of 6 and the survivor count [7] was 6 of 6.
With `CC(C)(C)C1CC=CCC1` (configuration not stated) the survivor count (dose: 200.0 mg/kg/injection, schedule: Q01DX009 (ip), vehicle: saline sonified) was 4 of 6.
With `CCCCCCCCCCCCC[N+]1([O-])CCCCC1` the survivor count (dose: 100.0 mg/kg/injection, schedule: Q01DX009 (ip), vehicle: saline) was 3 of 6 and the survivor count (dose: 200.0 mg/kg/injection, schedule: Q01DX009 (ip), vehicle: saline) was 0 of 6.
With `CC(Br)(C(Br)c1ccccc1)[N+](=O)[O-]` (configuration not stated) the survivor count [8] was 4 of 6.
`CC1(C)CCC2=C(O1)c1ccccc1C(=O)C2=O` was tested, and the T/C [8] was 129 % of control and the survivor count [9] was 1 of 6.
`CCN(CC)Cc1cc(Nc2cc(C)nc3ccc(N(C)C)cc23)ccc1O` was tested, and the survivor count (dose: 120.0 mg/kg/injection, schedule: Q01DX005 (ip), vehicle: saline) was 6 of 6 and the survivor count (dose: 240.0 mg/kg/injection, schedule: Q01DX005 (ip), vehicle: saline) was 0 of 6.
`CCCCN=C(N)NN=C(c1ccc(C)cc1)c1ccc(C)cc1` was tested, and the survivor count (dose: 100.0 mg/kg/injection, schedule: Q04DX002 (ip), vehicle: saline with Tween-80) was 0 of 6.
In the case of `CC(C)CN(CC(C)C)CN(CC(C)C)CC(C)C`, the survivor count [4] is reported as 0 of 6.
For `Cn1c(CCCC(=O)O)nc2cc(N(CCCl)CCCl)ccc21`, the T/C (dose: 15.0 mg/kg/injection, schedule: Q04DX003 (ip), vehicle: saline with Tween-80, evaluated on day 20) was 145 % of control, the T/C (dose: 15.0 mg/kg/injection, schedule: Q04DX003 (ip), vehicle: saline with Tween-80, evaluated on day 30) was 145 % of control and the survivor count (dose: 20.0 mg/kg/injection, schedule: Q01DX009 (ip), vehicle: saline sonified) was 5 of 6. For the same molecule, the survivor count (dose: 30.0 mg/kg/injection, schedule: Q04DX003 (ip), vehicle: saline with Tween-80) was 6 of 6 and the survivor count (dose: 60.0 mg/kg/injection, schedule: Q04DX003 (ip), vehicle: saline with Tween-80) was 6 of 6.
For `CNc1n[n+](-c2ccccc2)no1`, the T/C (dose: 3.13 mg/kg/injection, schedule: Q01DX009 (ip), vehicle: water) was 102, 104, 106, 107, 109, 110, 111 (2×), 112, 118, 124 % of control, the T/C (dose: 6.25 mg/kg/injection, schedule: Q01DX009 (ip), vehicle: water) was 104, 108, 111, 112 (2×), 116, 119, 121, 124, 128, 134, 137 % of control and the T/C (dose: 12.5 mg/kg/injection, schedule: Q01DX009 (ip), vehicle: water) was 118, 122, 127, 129, 130, 133, 135 (2×), 136, 137, 139, 153 % of control. For the same molecule, the T/C (dose: 25.0 mg/kg/injection, schedule: Q01DX009 (ip), vehicle: water) was 120, 148, 152, 153, 154, 155, 168, 170, 171 [5 of 6 alive], 172, 173, 184 % of control [5 of 6 alive], the T/C [10] was 89, 91, 99 (2×), 101, 111, 184 % of control and the survivor count [10] was 5 of 6 and 6 of 6.
`N#Cc1ccc(OC(=O)Nc2ccccc2C(F)(F)F)cc1` was tested, and the survivor count (dose: 240.0 mg/kg/injection, schedule: Q01DX005 (ip), vehicle: saline with Tween-80) was 6 of 6.
`COc1ccc(/C=C/C(=O)OC2CC34CCNC35CC(OC5(OC)C2OC)c2ccc(OC)c(O)c24)cc1O` (configuration not stated) was tested, and the survivor count [2] was 0 of 6.
In the case of `COC(=O)C1=NC(=O)C(C#N)=C(C(=O)OC)C1(C(=O)c1ccc(OC)cc1)c1ccc(OC)cc1` (configuration not stated), the survivor count (dose: 240.0 mg/kg/injection, schedule: Q01DX005 (ip), vehicle: Klucel (hydroxypropylcellulose) (HPC)) is reported as 6 of 6.
In the case of `CSc1nc(C)c(Br)c(Sc2nc(N)nc3nc[nH]c23)n1`, the T/C [11] is reported as 130 % of control, the T/C (dose: 66.0 mg/kg/injection, schedule: Q04DX003 (ip), vehicle: saline with Tween-80) is reported as 136 % of control and the survivor count [5] is reported as 6 of 6. The T/C [12] was 127 and 145 % of control, the T/C (dose: 150.0 mg/kg/injection, schedule: Q04DX003 (ip), vehicle: saline with Tween-80) was 127 % of control and the survivor count [6] was 6 of 6. For the same molecule, the survivor count [13] was 5 of 6.
In the case of `Cc1cccc(N2CCN(c3ccc4nonc4c3[N+](=O)[O-])CC2)c1`, the survivor count (dose: 50.0 mg/kg/injection, schedule: Q01DX009 (ip), vehicle: suspension in saline) is reported as 6 of 6.
With `O=[N+]([O-])[O][Sn]([O][Sn]([O][N+](=O)[O-])([c]1ccccc1)[c]1ccccc1)([c]1ccccc1)[c]1ccccc1` the T/C (dose: 3.12 mg/kg/injection, schedule: Q01DX005 (ip), vehicle: saline) was 125 % of control, the T/C (dose: 6.25 mg/kg/injection, schedule: Q01DX005 (ip), vehicle: saline) was 137 % of control and the T/C (dose: 12.5 mg/kg/injection, schedule: Q01DX005 (ip), vehicle: saline) was 138 % of control. The survivor count (dose: 25.0 mg/kg/injection, schedule: Q01DX005 (ip), vehicle: saline) was 3 of 6, the survivor count [1] was 2 of 6 and the survivor count (dose: 50.0 mg/kg/injection, schedule: Q01DX005 (ip), vehicle: saline) was 1 of 6. For the same molecule, the survivor count [2] was 0 of 6 and the survivor count [3] was 0 of 6.
In the case of `C/C=C1/C[N+]2(C)CCc3c([nH]c4ccccc34)C2CC1C(CO)C(=O)OC` (configuration not stated), the survivor count [5] is reported as 3 of 6.
In the case of `COc1cccc(CN2CCN(N=O)CC2)c1`, the survivor count (dose: 400.0 mg/kg/injection, schedule: Q01DX009 (ip), vehicle: Klucel (hydroxypropylcellulose) (HPC)) is reported as 2 of 6.
In the case of `O=c1[nH]cc(N(CCCl)CCCl)c(=O)[nH]1`, the T/C (dose: 0.14 mg/kg/injection, schedule: Q01DX009 (ip), vehicle: saline with Tween-80) is reported as 136 % of control and the T/C (dose: 0.23 mg/kg/injection, schedule: Q01DX009 (ip), vehicle: saline with Tween-80) is reported as 145 % of control.
For `C[C@@H]1CCC[C@@H](NC(=O)N(CCCl)N=O)C1`, the survivor count (dose: 150.0 mg/kg/injection, schedule: Q01DX009 (ip), vehicle: Klucel (hydroxypropylcellulose) (HPC)) was 5 of 6.
In the case of `CC1(CCc2ccc(N(CCCl)CCCl)cc2)NC(=O)NC1=O` (configuration not stated), the T/C (dose: 12.5 mg/kg/injection, schedule: Q01DX009 (ip), vehicle: Klucel (hydroxypropylcellulose) (HPC)) is reported as 145 % of control, the T/C (dose: 25.0 mg/kg/injection, schedule: Q01DX009 (ip), vehicle: Klucel (hydroxypropylcellulose) (HPC)) is reported as 126 and 134 % of control [5 of 6 alive] and the survivor count (dose: 50.0 mg/kg/injection, schedule: Q01DX009 (ip), vehicle: Klucel (hydroxypropylcellulose) (HPC)) is reported as 6 of 6. The survivor count [8] was 6 of 6 and the survivor count [9] was 2 of 6.
For `NC(CSCc1ccc(N(CCCl)CCCl)cc1)C(=O)O` (configuration not stated), the T/C (dose: 12.5 mg/kg/injection, schedule: Q01DX009 (ip), vehicle: saline with Tween-80) was 140 % of control, the T/C [11] was 140 % of control and the survivor count [5] was 6 of 6. The T/C [12] was 141 % of control, the survivor count (dose: 132.0 mg/kg/injection, schedule: Q04DX003 (ip), vehicle: saline with Tween-80) was 5 of 6 and the survivor count [6] was 1 of 6. The T/C [14] was 145 % of control, the survivor count [14] was 6 of 6 and the survivor count (dose: 300.0 mg/kg/injection, schedule: Q04DX003 (ip), vehicle: saline with Tween-80) was 6 of 6. For the same molecule, the survivor count [7] was 1 of 6 and the T/C [13] was 141 % of control.
